Values from PubChem BioAssay AID1259308 (NCATS, 2017)
Shown is one part, drawn at random, of about 59,000 reagents. In the full data, about 1,510 (2.6%) are marked active. 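Calls use total luciferase alone and ignore viability, so some active siRNAs may act by altering cell number.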 Reagents against one gene are numbered here. Not all columns of the deposit are shown.

- Test: 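Knock-downs that increase output of a recombinant reporter protein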 (primary screen)
- Cells: human HEK293 embryonic kidney cells stably expressing firefly luciferase (HEK-CMV-Luc2-Hygro)
- Reagents: single siRNA against human genes, 0.8 pmol siRNA per well
- Timing: 72 h
- Detection: 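Luciferase light (ONE-Glo) measured on one replicate plate set and viability (CellTiter-Glo) on the other, scaled to a negative control siRNA, with robust z-scores and luciferase per cell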
- Reading the numbers: total luciferase, z-score: higher = more reporter protein produced
- Call rule: 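Active when the median/MAD z-score for overall luciferase is greater than 3; a gene was taken forward for validation with new siRNAs if at least two of its three siRNAs passed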
- Calls: active = raised luciferase; inactive = no rise

How did the screen score ARHGAP26 #1?
total luciferase, z-score: -0.342; call: inactive

For ARHGAP26 #2, what does the deposit list?
total luciferase, z-score: -0.0691; call: inactive

With ARHGAP26 #3, what does the deposit list?
total luciferase, z-score: 0.696; call: inactive

For CAB39 #1, how do the results read?
total luciferase, z-score: -0.31; call: inactive

How did the screen score CAB39 #2?
total luciferase, z-score: -0.792; call: inactive

With CAB39 #3, what was measured?
total luciferase, z-score: -0.226; call: inactive

For TMEM64 #1, how do the results read?
total luciferase, z-score: -0.962; call: inactive

What did the screen give for TMEM64 #2?
total luciferase, z-score: -2.01; call: inactive

What did the screen give for TMEM64 #3?
total luciferase, z-score: 0.263; call: inactive

How did the screen score NUP133 #1?
total luciferase, z-score: -1.16; call: inactive

With NUP133 #2, how do the results read?
total luciferase, z-score: -0.948; call: inactive

Which result is listed for NUP133 #3?
total luciferase, z-score: 2.2; call: inactive

For PJVK #1, what does the deposit list?
total luciferase, z-score: 0.539; call: inactive

For PJVK #2, what was measured?
total luciferase, z-score: 1.71; call: inactive

For PJVK #3, what does the deposit list?
total luciferase, z-score: -1.31; call: inactive

With SMTNL1 #1, what does the deposit list?
total luciferase, z-score: 0.843; call: inactive

How did the screen score SMTNL1 #2?
total luciferase, z-score: -0.71; call: inactive

What did the screen give for SMTNL1 #3?
total luciferase, z-score: -1.29; call: inactive

For RGMB-AS1 #1, how do the results read?
total luciferase, z-score: 0.605; call: inactive

Which result is listed for RGMB-AS1 #2?
total luciferase, z-score: 0.591; call: inactive

With RGMB-AS1 #3, what does the deposit list?
total luciferase, z-score: -1.07; call: inactive

With CTSL3P #1, what does the deposit list?
total luciferase, z-score: -0.892; call: inactive

For CTSL3P #2, how do the results read?
total luciferase, z-score: -0.305; call: inactive

What did the screen give for CTSL3P #3?
total luciferase, z-score: 1.79; call: inactive

How did the screen score LZTR1 #1?
total luciferase, z-score: -0.109; call: inactive

How did the screen score LZTR1 #2?
total luciferase, z-score: -0.863; call: inactive

Which result is listed for LZTR1 #3?
total luciferase, z-score: 5.88; call: active

Which result is listed for PCDHB2 #1?
total luciferase, z-score: -0.395; call: inactive

With PCDHB2 #2, what was measured?
total luciferase, z-score: -0.871; call: inactive

For PCDHB2 #3, how do the results read?
total luciferase, z-score: -1.19; call: inactive

Which result is listed for NXPE4 #1?
total luciferase, z-score: 0.269; call: inactive

For NXPE4 #2, how do the results read?
total luciferase, z-score: -0.0365; call: inactive

With NXPE4 #3, what was measured?
total luciferase, z-score: 0.973; call: inactive

Taken from above:
Value for SMTNL1 #2 in “call”: inactive
NUP133 #2, total luciferase, z-score: -0.948
CTSL3P #3, total luciferase, z-score: 1.79
